Assay results taken from publication PMC12059050.
Results are given in words; binding and its absence hold for the method and conditions named. In cells and extracts the contact can be indirect. Here binding means that the protein was enriched with, or labelled near, the bait; the list need not be complete. No binding means not detected with the bait.

By UniProt entry, the sequences of proteins in these tests, tags left out.
UniProt Q9UBN7: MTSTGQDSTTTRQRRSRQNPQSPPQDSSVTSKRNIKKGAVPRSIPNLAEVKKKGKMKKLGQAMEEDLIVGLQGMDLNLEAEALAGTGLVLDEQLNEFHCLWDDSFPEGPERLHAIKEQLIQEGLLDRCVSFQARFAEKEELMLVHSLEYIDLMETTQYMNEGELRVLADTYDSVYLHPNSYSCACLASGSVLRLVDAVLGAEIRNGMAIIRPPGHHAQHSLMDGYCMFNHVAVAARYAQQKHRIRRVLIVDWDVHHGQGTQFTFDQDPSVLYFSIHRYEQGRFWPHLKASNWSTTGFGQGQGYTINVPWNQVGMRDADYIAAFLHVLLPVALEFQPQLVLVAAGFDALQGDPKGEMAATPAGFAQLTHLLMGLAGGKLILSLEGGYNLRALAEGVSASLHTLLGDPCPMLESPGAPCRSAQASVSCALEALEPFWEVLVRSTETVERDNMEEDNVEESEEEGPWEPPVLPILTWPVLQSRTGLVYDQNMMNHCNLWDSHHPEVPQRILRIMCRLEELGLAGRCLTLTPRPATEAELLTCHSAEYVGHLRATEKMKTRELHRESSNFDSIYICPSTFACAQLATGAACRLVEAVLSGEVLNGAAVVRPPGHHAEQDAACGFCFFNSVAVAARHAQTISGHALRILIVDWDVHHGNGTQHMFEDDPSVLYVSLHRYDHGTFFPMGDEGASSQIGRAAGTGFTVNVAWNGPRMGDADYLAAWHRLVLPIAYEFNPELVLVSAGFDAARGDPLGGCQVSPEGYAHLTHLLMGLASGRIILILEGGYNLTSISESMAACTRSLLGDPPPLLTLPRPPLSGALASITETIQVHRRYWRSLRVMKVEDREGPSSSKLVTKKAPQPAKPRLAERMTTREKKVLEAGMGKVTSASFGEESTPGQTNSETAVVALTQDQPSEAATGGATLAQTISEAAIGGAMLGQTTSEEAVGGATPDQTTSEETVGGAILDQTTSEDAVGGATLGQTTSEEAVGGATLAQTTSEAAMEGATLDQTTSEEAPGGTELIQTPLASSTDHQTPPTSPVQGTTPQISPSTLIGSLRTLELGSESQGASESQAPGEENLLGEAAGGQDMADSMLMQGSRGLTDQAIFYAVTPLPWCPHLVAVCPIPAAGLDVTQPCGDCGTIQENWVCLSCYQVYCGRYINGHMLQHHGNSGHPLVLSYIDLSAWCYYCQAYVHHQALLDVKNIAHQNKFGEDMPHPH

Target: TurboID-TAX1BP1 (human (endogenous in HeLa)) (UniProt Q86VP1)
Assay: proximity labelling; HeLa knock-in cells expressing TurboID-TAX1BP1; aggrephagy conditions (8 h Btz, 15 h recovery, 3 h Baf), 50 uM biotin; RIPA lysate on streptavidin magnetic beads, label-free quantitative mass spectrometry, compared with cells expressing free TurboID or with untreated cells; several hits also by immunoblot of the purified biotinylated material

binding: no binding
Substance: HDAC6 (from UniProt Q9UBN7 1-1215)
